Results reported in patent US12474327B2, “Metabolic profiling for the diagnosis of a subset of idiopathic autism spectrum disorder patients, ADS Phenotype 1” (STALICLA SA, priority 2018, dated 2025).
At least one structure is not confirmed: it was looked up by name or label, or the drawing left a doubt.

Tested on: ASD Phenotype 1 lymphoblastoid cell lines (LCLs)
Experiment: Energy production capacity (NADH, tetrazolium colorimetric assay, Biolog Phenotype Mammalian MicroArrays)
Assay type: cell-based, human
Conditions: D-Glucose and D-mannose, pretreatment 10 μM
Method: The data reported in the present patent were generated from lymphoblastoid cell lines (LCLs) generated from lymphocytes from peripheral blood. Tubes containing anticoagulant citrate dextrose (ACD) were used to collect blood samples via venipuncture, in order to ensure that the blood cells remained metabolically active. The tubes were kept at room temperature and processed within 24 hours.
Cell lines were obtained by immortalization of lymphocytes from blood samples using Epstein-Barr virus. […]
Energy production of cells was measured using commercially available Phenotype Mammalian MicroArrays (PM-Ms, Biolog, Hayward, CA, USA).
The compound in each well was designed to be used by the cells, either as the sole energy source or as the metabolic effector influencing the utilization of an energy source (D-glucose) added in the cell suspension. The production of NADH per well was monitored using a colorimetric redox dye chemistry (Bochner et al. Assay of the multiple energy-producing pathways of mammalian cells. PLoS One 2011, 6(3):e18147). Before plating, cell viability and number were assessed utilizing a BioRad cell counter and a trypan blue dye. […]
For the last 24 hours of the experiment, plates were incubated in the Omnilog system, which collects optical density readings every 15 minutes, generating 96 data-points for each well. […]

CC(C)C(=O)c1c(C(C)C)nn2ccccc12 [ibudilast]
energy production compared to untreated ASD Ph1: significantly increased
